This experiment concerns the target Cameo1 in pBiFC-VC155 (Bombyx mori) (UniProt D2KXB2). As to the kind of experiment: split reporter; Cameo1 or Cameo2 in pBiFC-VC155 and CBP or cbp in pBiFC-VN173, co-transfected into HEK293 cells; cells fixed 24 h after transfection; yellow fluorescence seen by fluorescence microscopy.

These are yes or no findings as the source states them, for the method shown. Binding seen in cells or lysates may run through a third protein. A result given as binding can be weak or reduced; the word gives no strength.

B1: Carotenoid-binding protein (CBP) in pBiFC-VN173 (protein, UniProt Q8MYA9 2-297)
chain: ADSTSKSAPKINEETAERQLNELINVDSHDEYENRLSRISSALANWMKSVFNMDTTTKEEFDPVWLSIDEYKSQANESMANAWRIITLPNWTVEKRGTVRGDVVESRKVEGFGKVYRFTGVVNCPARFLYEEFKNNLTKLPEWNPTILKCEIIKEIGDGVDLSYQVTAGGGRGIITPRDFVILRRTALLSREGRVVDDNPHGYISSGVSVQVPGYPPLKEMVRGHNKVGCWYLQPRTVQTPGGKIEDQALFQWLMCCDLKGKIPQFVLDVAFATVMLDYIVHVRKFVAEAKARAEI
For B1, the binding result is “binds”.

Values taken from PMC3903547.
